# Primary screen of a compound library

From ChEMBL document CHEMBL3988442, “University of Dundee, Small-Polar-MMV Screening Library” (2021).

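Whole-cell growth test on Mycobacterium tuberculosis, read after 3 days in glucose-containing 7H9 medium; the read-out is not stated. Compounds at 50 µM. The record gives no direction; compounds that gave an IC50 in retests scored well above the rest, so higher reads as more growth inhibition. Of about 69,000 compounds tested this way, about 760 (1.1%) reached 50% or more in at least one test.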

Each number is a percent effect as filed. How 0% and 100% were set is not recorded. Most values in the screen are low, and negative values occur. The compounds are a random part of those screened. Two or more numbers in one place are separate tests of the same structure; such repeats can differ widely.

| # | compound | percent effect |
|---|---|---|
| 1 | `COCCNc1nc(C)nc2c1CCN(C[C@H]1CC[C@@H](N)CC1)CC2` | 1.921 |
| 2 | `Cc1cc(C(=O)NCc2ccc(N3CCCC(C(N)=O)C3)cc2)no1` (configuration not stated) | -5.912 |
| 3 | `O=C(c1ccc(-n2ccnc2)nc1)N1CCCC(n2cccn2)C1` (configuration not stated) | -19.58 |
| 4 | `O=C(O)C(F)(F)F.[H][C@@]12COC[C@]1(CN(C)C)CN(C(=O)Cc1ccccc1C)C2` | 9.682 |
| 5 | `O=C(CO)N1CCC(c2cncc(-c3cccc(Cl)c3)n2)CC1` | 18.79 |
| 6 | `Cc1ncccc1Oc1nccnc1C1CCN(C(C)C)CC1` | 25.3 |
| 7 | `CC1c2ncc(CN3CCN(C)CC3)n2CCN1Cc1cnn(C)c1.O=C(O)C(F)(F)F.O=C(O)C(F)(F)F.O=C(O)C(F)(F)F` (configuration not stated) | -28.61 |
| 8 | `Cc1cc(CN(C)C(=O)NCc2ccco2)no1` | 5.652 |
| 9 | `COC(=O)CCNC(=O)c1cccc(C(=O)N(C)c2ccccc2)c1` | 0.5967 and -58.59 |
| 10 | `COc1ccc(-c2nc(CNC3CCc4nc(C)nn4C3)no2)cc1` (configuration not stated) | 17.73 |
| 11 | `O=S(=O)(c1ccc2c(c1)OCCO2)N1CCc2ccccc2C1` | 0.988 and 7.574 |
| 12 | `CCS(=O)(=O)Nc1ccc2[nH]c(C3CCC3)nc2c1` | -8.219 and -2.216 |
| 13 | `CN(Cc1ccoc1)C(=O)CN1C(=O)OC(C)(C)C1=O` | 1.269 and 1.817 |
| 14 | `Cc1cccc(C(=O)N2CCCSCC2CN2CCCC2)c1` (configuration not stated) | 8.239 |
| 15 | `[H][C@@]12CS(=O)(=O)C[C@]1([H])N(Cc1nc3ccccc3[nH]1)CCN2CCC` | -2.591 and -24.58 |
| 16 | `CC(C)C(NC(=O)Nc1ccccn1)c1cccs1` (configuration not stated) | -23.94 |
| 17 | `N#Cc1c(N2CCOCC2)nsc1-c1cccnc1` | -22.9 |
| 18 | `O=C(O)C(F)(F)F.O=C(c1cocn1)N1CCC2(CC1)COC(COCc1ccccn1)C2` (configuration not stated) | 3.923 and -8.577 |
| 19 | `O=C1C=CC=N/C1=C(/O)NCCNS(=O)(=O)N1CCCCCC1` | 12.27 |
| 20 | `CN(C)CCNC(=O)CCC1CCN(C(=O)c2ccc(O)cn2)CC1` | -23.5 |
| 21 | `Cc1ccccc1NC(=O)CNC(C)COc1ccccc1` (configuration not stated) | -6.891 |
| 22 | `Cc1nn(C2CCS(=O)(=O)C2)c(O)c1Cc1ccccc1` (configuration not stated) | -1.356 |
| 23 | `COc1ccc(C)cc1CC(=O)Nc1cc(C)n[nH]1` | -41 |
| 24 | `CCOCCNc1nc(-c2ccncc2)nc2c1CCNCC2` | -12.9 and 1.537 |
| 25 | `CC(C)OC(=O)CNC(=O)Nc1ccc(-c2nc(C(C)C)no2)cc1` | 0.07621 |
| 26 | `Cc1ccc2c(c1)C(=O)NCC1(CCN(C(=O)c3ccccn3)CC1)O2` | -13.46 |
| 27 | `C1CCC(CNC2CCSCC2)(N2CCOCC2)CC1` | 13.92 |
| 28 | `Cc1nn(C)c(C)c1-c1cnc(C2CCCN(S(C)(=O)=O)C2)cn1` (configuration not stated) | 9.519 |
| 29 | `Cc1nc2sccn2c1C(=O)N1CCc2c(nc(N(C)C)[nH]c2=O)C1` | 3.098 |
| 30 | `CCc1nc2n(n1)CC(Nc1cc(C)nc3ncnn13)CC2` (configuration not stated) | 0.6217 and -6.02 |
| 31 | `CN(Cc1cc[nH]n1)C(=O)c1cccc(CCC(C)(C)O)c1` | -6.607 |
| 32 | `COc1ccc(OC)c(-n2cnnc2C)c1` | 14.54 |
| 33 | `O=C1NC[C@]2(CC[C@@H](C(=O)N3CCC(O)CC3)CC2)Oc2ccccc21` | 7.684 |
| 34 | `CNC(=O)C1Cn2ccnc2C2(CCN(Cc3cccc(C)n3)CC2)O1.O=C(O)C(F)(F)F` (configuration not stated) | -5.21 |
| 35 | `c1cnnc(N2CCCC2CNCc2nc(-c3cccs3)no2)c1` (configuration not stated) | 19.36 |
| 36 | `CCc1nsc(N2CCN(C(=O)c3ccnc(N(C)C)c3)CC2)n1` | 6.515 and -14.55 |
| 37 | `O=C(O)C(F)(F)F.O=C(O)C(F)(F)F.[H][C@@]12CCCO[C@]1([H])[C@H](OCc1ccncc1)CN2Cc1ccoc1` | 11.99 |
| 38 | `O=C(O)C(F)(F)F.O=C(O)C(F)(F)F.[H][C@@]12CCN(Cc3cccc(C#N)c3)[C@@]1([H])CC(=O)N2Cc1ccncc1` | -21.9 |
| 39 | `CO[C@@H]1CCN(C2CCOCC2)C[C@@H]1Cc1ccccc1.O=C(O)C(F)(F)F` | -43.87 |
| 40 | `CN(C)CCNc1cc(-c2ncccc2O)c2cc[nH]c2n1` | 23.6 |
| 41 | `CCc1nnc2n1CCN(C(=O)C(OC)c1ccccc1)C2` (configuration not stated) | -27.83 and 8.146 |
| 42 | `CC(C(N)=O)S(=O)(=O)Cc1cc(Cl)c2c(c1)OCO2` (configuration not stated) | -3.772 |
| 43 | `Cn1ncc(NC(=O)Cn2cc(-c3ccc(F)cn3)cn2)n1` | -5.234 |
| 44 | `c1cn(CCc2c[nH]cn2)c(-c2cc(CN3CCCC3)cs2)n1` | 47.66 |
| 45 | `CNS(=O)(=O)Cc1ccc(CNC(=O)c2ccc(C)[nH]c2=O)cc1` | 5.912 |
| 46 | `Cc1noc(C)c1-c1cncc(C2CCCN2Cc2cn(C)cn2)n1` (configuration not stated) | 4.659 |
| 47 | `Cc1nn(CN(CC2CCOC2)C2CC2)c(=O)c2ccccc12` (configuration not stated) | -36.85 |
| 48 | `Cc1oncc1C(=O)N1CCCc2c(C#N)nn(C)c2C1` | 14.22 and -2.708 |
| 49 | `Cc1ccnc(C(NC(=O)c2ccc(O)nc2C)C2CC2)n1` (configuration not stated) | -13.99 |
| 50 | `Cc1ccc(-n2nnc(CC(=O)N3CCN(C4CC4)CC3)c2C)cc1` | 11.15 |
| 51 | `NCc1n[nH]c(-c2cccc(F)c2)n1` | -7.661 and -26.02 |
| 52 | `CC[S+](CC)[c-]1c(=O)[nH]c(=O)n(Cc2ccc(F)cc2)c1=O` | -1.921 and -12.22 |
| 53 | `COCc1cnc2n1CCN(C(=O)c1cn(C)c3ccccc13)C2C` (configuration not stated) | -2.829 |
| 54 | `CCCc1noc(CCC(=O)N2CCCC(c3ccn[nH]3)C2)n1` (configuration not stated) | 19.47 |
| 55 | `Cc1nc(C)n(CC2CCCCN2CCCS(N)(=O)=O)n1` (configuration not stated) | -21.07 |
| 56 | `CSCC[C@@H](CO)NC(=O)c1ccc2nc(NS(C)(=O)=O)sc2c1` | -16.58 |
| 57 | `CC(C)(C)[S+]([O-])CCNC(=O)c1csc(NC2CC2)n1` (configuration not stated) | 6.169 and -6.644 |
| 58 | `CN(C)C(=O)CCC1CCCN(Cc2cccc(-c3ccccn3)c2)C1` (configuration not stated) | -55.24 |
| 59 | `CN1CCC(CNC(=O)c2cccc(C(F)(F)F)c2)c2ccccc21` (configuration not stated) | 51.37 and 47.98 |
| 60 | `[H][C@@]12CCCO[C@]1([H])[C@@H](OCc1cccnc1)CN2C(=O)C1=CCCC1` | -0.1109 and 29.79 |
| 61 | `O=C(Nc1cc(C2CCOCC2)[nH]n1)c1cscn1` | 5.372 |
| 62 | `O=C(N1CCCC(n2cncn2)C1)C1(c2ccc(Cl)cc2)CCC1` (configuration not stated) | -6.417 |
| 63 | `CS(=O)(=O)Nc1ccc([C@H]2OCC(=O)N[C@@H]2CO)cc1` | 4.329 and -13.08 |
| 64 | `CC(=O)N1CCN(c2ccnc(C)n2)CC(COc2ccccc2)C1` (configuration not stated) | 10.26 |
| 65 | `O=C(O)C(F)(F)F.O=C(O)C(F)(F)F.[H][C@]12C[C@@H](CN3CCCC3)N(C)[C@@]1([H])CCN(C(=O)c1cnoc1C)C2` | 15.2 |
| 66 | `COCCCC1(CO)CCCN(Cc2cccc(C#N)c2)C1` (configuration not stated) | 16.8 |
| 67 | `c1cnc(Nc2ccc(C3CCCCN3Cc3ccncc3)cn2)nc1` (configuration not stated) | 5.701 |
| 68 | `O=c1[nH]c(CCN2CCCC2Cn2cccn2)nc2ccccc12` (configuration not stated) | 33.49 |
| 69 | `CCCc1nc(C)cc(N2CCNC(C(=O)Nc3ccc(C)nc3)C2)n1` (configuration not stated) | 5.323 |
| 70 | `CC(=O)N1CCCC1c1ccnc(Nc2cncnc2)n1` (configuration not stated) | -11.71 |
| 71 | `COC1CC2(CCN(Cc3ccc4c(c3)OCO4)CC2)C1` | -15.76 |

Repeated from the top, 9 entries:

| compound | percent effect |
|---|---|
| `COCCNc1nc(C)nc2c1CCN(C[C@H]1CC[C@@H](N)CC1)CC2` | 1.921 |
| `Cc1cc(C(=O)NCc2ccc(N3CCCC(C(N)=O)C3)cc2)no1` (configuration not stated) | -5.912 |
| `O=C(c1ccc(-n2ccnc2)nc1)N1CCCC(n2cccn2)C1` (configuration not stated) | -19.58 |
| `O=C(O)C(F)(F)F.[H][C@@]12COC[C@]1(CN(C)C)CN(C(=O)Cc1ccccc1C)C2` | 9.682 |
| `O=C(CO)N1CCC(c2cncc(-c3cccc(Cl)c3)n2)CC1` | 18.79 |
| `Cc1ncccc1Oc1nccnc1C1CCN(C(C)C)CC1` | 25.3 |
| `CC1c2ncc(CN3CCN(C)CC3)n2CCN1Cc1cnn(C)c1.O=C(O)C(F)(F)F.O=C(O)C(F)(F)F.O=C(O)C(F)(F)F` (configuration not stated) | -28.61 |
| `Cc1cc(CN(C)C(=O)NCc2ccco2)no1` | 5.652 |
| `COC(=O)CCNC(=O)c1cccc(C(=O)N(C)c2ccccc2)c1` | 0.5967 and -58.59 |